Data taken from PubChem BioAssay AID188 (DTP/NCI, 2004).
The mice bore no tumour; each value counts animals alive of those treated. Counts of survivors are from the toxicity check (mostly the fifth day) where no day follows; animals may have died later. Schedules are NCI's codes, taken here to give the interval after Q, in days (D) or hours (H), and the number of doses after X. Some entries hold several experiments; the values are given in rising order.

Test system: CD2F1 mice, nontumored, toxicity/survival
Test: NCI In Vivo Anticancer Drug Screen. Data for tumor model Nontumored Animals (Toxicity Test) in CD2F1 (CDF1) mice
[1] = dose: 1.0 mg/kg/injection, schedule: Q01DX001 (ip), vehicle: DMSO
[2] = dose: 10.0 mg/kg/injection, schedule: Q01DX001 (ip), vehicle: DMSO
[3] = dose: 100.0 mg/kg/injection, schedule: Q01DX001 (ip), vehicle: DMSO

## CN(Cc1cnc2nc(N)nc(N)c2n1)c1ccc(C(=O)N[C@@H](CCC(=O)O)C(=O)O)cc1
dose: 0.06 mg/kg/injection, schedule: Q01DX009 (ip), vehicle: sodium bicarbonate
  survivor count: 8 of 8
dose: 0.13 mg/kg/injection, schedule: Q01DX009 (ip), vehicle: saline
  survivor count: 8 of 8
dose: 0.13 mg/kg/injection, schedule: Q01DX009 (ip), vehicle: sodium bicarbonate
  survivor count: 8 of 8
dose: 0.13 mg/kg/injection, schedule: Q03HX024 (ip), vehicle: saline
  survivor count: 8 of 8
dose: 0.25 mg/kg/injection, schedule: Q01DX009 (ip), vehicle: saline
  survivor count: 8 of 8
dose: 0.25 mg/kg/injection, schedule: Q01DX009 (ip), vehicle: sodium bicarbonate
  survivor count: 8 of 8
dose: 0.25 mg/kg/injection, schedule: Q03HX008 (ip), vehicle: saline
  survivor count: 8 of 8
dose: 0.25 mg/kg/injection, schedule: Q03HX016 (ip), vehicle: saline
  survivor count: 8 of 8
dose: 0.25 mg/kg/injection, schedule: Q03HX024 (ip), vehicle: saline
  survivor count: 8 of 8
dose: 0.5 mg/kg/injection, schedule: Q01DX009 (ip), vehicle: saline
  survivor count: 8 of 8
dose: 0.5 mg/kg/injection, schedule: Q01DX009 (ip), vehicle: sodium bicarbonate
  survivor count: 8 of 8
dose: 0.5 mg/kg/injection, schedule: Q03HX008 (ip), vehicle: saline
  survivor count: 8 of 8
dose: 0.5 mg/kg/injection, schedule: Q03HX016 (ip), vehicle: saline
  survivor count: 3 of 8
dose: 0.5 mg/kg/injection, schedule: Q03HX024 (ip), vehicle: saline
  survivor count: 8 of 8
dose: 0.75 mg/kg/injection, schedule: Q01DX009 (ip), vehicle: sodium bicarbonate
  survivor count: 4 of 4
dose: 0.9 mg/kg/injection, schedule: Q01DX009 (ip), vehicle: sodium bicarbonate
  survivor count: 10 of 10
dose: 1.0 mg/kg/injection, schedule: Q01DX009 (ip), vehicle: saline
  survivor count: 8 of 8
dose: 1.0 mg/kg/injection, schedule: Q01DX009 (ip), vehicle: sodium bicarbonate
  survivor count: 4 of 4 and 8 of 8
dose: 1.0 mg/kg/injection, schedule: Q03HX008 (ip), vehicle: saline
  survivor count: 3 of 8
dose: 1.0 mg/kg/injection, schedule: Q03HX016 (ip), vehicle: saline
  survivor count: 1 of 8
dose: 1.0 mg/kg/injection, schedule: Q03HX024 (ip), vehicle: saline
  survivor count: 8 of 8
dose: 1.3 mg/kg/injection, schedule: Q01DX009 (ip), vehicle: sodium bicarbonate
  survivor count: 10 of 10
dose: 1.5 mg/kg/injection, schedule: Q01DX009 (ip), vehicle: sodium bicarbonate
  survivor count: 4 of 4
dose: 2.0 mg/kg/injection, schedule: Q01DX009 (ip), vehicle: saline
  survivor count: 8 of 8
dose: 2.0 mg/kg/injection, schedule: Q01DX009 (ip), vehicle: sodium bicarbonate
  survivor count: 2 of 3, 10 of 10, 8 of 8
dose: 2.0 mg/kg/injection, schedule: Q03HX008 (ip), vehicle: saline
  survivor count: 4 of 8
dose: 2.0 mg/kg/injection, schedule: Q03HX016 (ip), vehicle: saline
  survivor count: 1 of 8
dose: 3.0 mg/kg/injection, schedule: Q01DX009 (ip), vehicle: sodium bicarbonate
  survivor count: 10 of 10 and 4 of 4
dose: 3.5 mg/kg/injection, schedule: Q01DX009 (ip), vehicle: sodium bicarbonate
  survivor count: 10 of 10 and 9 of 9
dose: 4.0 mg/kg/injection, schedule: Q01DX009 (ip), vehicle: saline
  survivor count: 7 of 8
dose: 4.0 mg/kg/injection, schedule: Q01DX009 (ip), vehicle: sodium bicarbonate
  survivor count: 4 of 4 and 8 of 8
dose: 4.0 mg/kg/injection, schedule: Q04DX003 (ip), vehicle: saline
  survivor count: 8 of 8
dose: 5.0 mg/kg/injection, schedule: Q04DX003 (ip), vehicle: sodium bicarbonate
  survivor count: 4 of 4
dose: 5.4 mg/kg/injection, schedule: Q04DX002 (ip), vehicle: sodium bicarbonate
  survivor count: 4 of 4
dose: 5.4 mg/kg/injection, schedule: Q04DX003 (ip), vehicle: sodium bicarbonate
  survivor count: 4 of 4
dose: 6.0 mg/kg/injection, schedule: Q01DX009 (ip), vehicle: sodium bicarbonate
  survivor count: 0 of 2
dose: 8.0 mg/kg/injection, schedule: Q01DX001 (ip), vehicle: saline
  survivor count: 8 of 8
dose: 8.0 mg/kg/injection, schedule: Q01DX009 (ip), vehicle: sodium bicarbonate
  survivor count: 4 of 4 and 8 of 8
dose: 8.0 mg/kg/injection, schedule: Q04DX003 (ip), vehicle: saline
  survivor count: 8 of 8
dose: 8.0 mg/kg/injection, schedule: Q08DX002 (ip), vehicle: saline
  survivor count: 8 of 8
dose: 9.0 mg/kg/injection, schedule: Q04DX002 (ip), vehicle: sodium bicarbonate
  survivor count: 4 of 4
dose: 9.0 mg/kg/injection, schedule: Q04DX003 (ip), vehicle: sodium bicarbonate
  survivor count: 4 of 4 and 5 of 5
dose: 10.0 mg/kg/injection, schedule: Q04DX003 (ip), vehicle: sodium bicarbonate
  survivor count: 4 of 4
dose: 14.4 mg/kg/injection, schedule: Q01DX001 (ip), vehicle: sodium bicarbonate
  survivor count: 4 of 4
dose: 15.0 mg/kg/injection, schedule: Q04DX002 (ip), vehicle: sodium bicarbonate
  survivor count: 4 of 4
dose: 15.0 mg/kg/injection, schedule: Q04DX003 (ip), vehicle: sodium bicarbonate
  survivor count: 4 of 4 and 5 of 5
dose: 16.0 mg/kg/injection, schedule: Q01DX001 (ip), vehicle: saline
  survivor count: 6 of 8
dose: 16.0 mg/kg/injection, schedule: Q04DX003 (ip), vehicle: saline
  survivor count: 8 of 8
dose: 16.0 mg/kg/injection, schedule: Q08DX002 (ip), vehicle: saline
  survivor count: 7 of 8
dose: 20.0 mg/kg/injection, schedule: Q04DX003 (ip), vehicle: sodium bicarbonate
  survivor count: 4 of 4
dose: 24.0 mg/kg/injection, schedule: Q01DX001 (ip), vehicle: sodium bicarbonate
  survivor count: 4 of 4
dose: 25.0 mg/kg/injection, schedule: Q04DX002 (ip), vehicle: sodium bicarbonate
  survivor count: 4 of 4
dose: 25.0 mg/kg/injection, schedule: Q04DX003 (ip), vehicle: sodium bicarbonate
  survivor count: 4 of 4 and 5 of 5
dose: 30.0 mg/kg/injection, schedule: Q01DX001 (ip), vehicle: sodium bicarbonate
  survivor count: 4 of 4
dose: 32.0 mg/kg/injection, schedule: Q01DX001 (ip), vehicle: saline
  survivor count: 6 of 8
dose: 32.0 mg/kg/injection, schedule: Q04DX003 (ip), vehicle: saline
  survivor count: 6 of 8 and 8 of 8
dose: 32.0 mg/kg/injection, schedule: Q08DX002 (ip), vehicle: saline
  survivor count: 7 of 8
dose: 40.0 mg/kg/injection, schedule: Q01DX001 (ip), vehicle: sodium bicarbonate
  survivor count: 4 of 4
dose: 40.0 mg/kg/injection, schedule: Q04DX003 (ip), vehicle: sodium bicarbonate
  survivor count: 4 of 4
dose: 41.6 mg/kg/injection, schedule: Q04DX003 (ip), vehicle: sodium bicarbonate
  survivor count: 2 of 3
dose: 41.7 mg/kg/injection, schedule: Q04DX003 (ip), vehicle: sodium bicarbonate
  survivor count: 5 of 5
dose: 43.0 mg/kg/injection, schedule: Q01DX001 (ip), vehicle: sodium bicarbonate
  survivor count: 4 of 4
dose: 60.0 mg/kg/injection, schedule: Q01DX001 (ip), vehicle: sodium bicarbonate
  survivor count: 4 of 4
dose: 64.0 mg/kg/injection, schedule: Q01DX001 (ip), vehicle: saline
  survivor count: 5 of 8 and 6 of 8
dose: 64.0 mg/kg/injection, schedule: Q04DX003 (ip), vehicle: saline
  survivor count: 6 of 8 and 8 of 8
dose: 64.0 mg/kg/injection, schedule: Q08DX002 (ip), vehicle: saline
  survivor count: 3 of 8 and 6 of 8
dose: 66.7 mg/kg/injection, schedule: Q01DX001 (ip), vehicle: sodium bicarbonate
  survivor count: 4 of 4
dose: 67.0 mg/kg/injection, schedule: Q01DX001 (ip), vehicle: sodium bicarbonate
  survivor count: 4 of 4
dose: 72.0 mg/kg/injection, schedule: Q01DX001 (ip), vehicle: sodium bicarbonate
  survivor count: 2 of 3 and 4 of 4
dose: 112.0 mg/kg/injection, schedule: Q01DX001 (ip), vehicle: sodium bicarbonate
  survivor count: 4 of 4
dose: 120.0 mg/kg/injection, schedule: Q01DX001 (ip), vehicle: sodium bicarbonate
  survivor count: 4 of 4
dose: 128.0 mg/kg/injection, schedule: Q01DX001 (ip), vehicle: saline
  survivor count: 0 of 8 and 5 of 8
dose: 128.0 mg/kg/injection, schedule: Q04DX003 (ip), vehicle: saline
  survivor count: 3 of 8
dose: 128.0 mg/kg/injection, schedule: Q08DX002 (ip), vehicle: saline
  survivor count: 0 of 8 and 3 of 8
dose: 200.0 mg/kg/injection, schedule: Q01DX001 (ip), vehicle: sodium bicarbonate
  survivor count: 2 of 3 and 4 of 4
dose: 240.0 mg/kg/injection, schedule: Q01DX001 (ip), vehicle: sodium bicarbonate
  survivor count: 2 of 3
dose: 256.0 mg/kg/injection, schedule: Q01DX001 (ip), vehicle: saline
  survivor count: 2 of 8
dose: 256.0 mg/kg/injection, schedule: Q08DX002 (ip), vehicle: saline
  survivor count: 3 of 8
dose: 512.0 mg/kg/injection, schedule: Q01DX001 (ip), vehicle: saline
  survivor count: 1 of 8
dose: 512.0 mg/kg/injection, schedule: Q08DX002 (ip), vehicle: saline
  survivor count: 2 of 8

## CN(C)N=Nc1ccc(S(N)(=O)=O)cc1
dose: 118.0 mg/kg/injection, schedule: Q01DX009 (ip), vehicle: Klucel (hydroxypropylcellulose) (HPC)
  survivor count: 10 of 10
dose: 177.0 mg/kg/injection, schedule: Q01DX009 (ip), vehicle: Klucel (hydroxypropylcellulose) (HPC)
  survivor count: 8 of 10
dose: 266.0 mg/kg/injection, schedule: Q01DX009 (ip), vehicle: Klucel (hydroxypropylcellulose) (HPC)
  survivor count: 5 of 10
dose: 400.0 mg/kg/injection, schedule: Q01DX009 (ip), vehicle: Klucel (hydroxypropylcellulose) (HPC)
  survivor count: 7 of 10
dose: 600.0 mg/kg/injection, schedule: Q01DX009 (ip), vehicle: Klucel (hydroxypropylcellulose) (HPC)
  survivor count: 0 of 10

## COc1cc2c3c(c1)-c1c(ccc(OC)c1O)CC3N(C)CC2 (centres undefined)
[1]
  survivor count: 2 of 2
[2]
  survivor count: 2 of 2
[3]
  survivor count: 2 of 2

## CCOP(=O)(N(CCCl)CCCl)N1CCc2ccccc2C1 (centres undefined)
dose: 1.0 mg/kg/injection, schedule: Q01DX001 (ip), vehicle: saline with Tween-80
  survivor count: 2 of 2
dose: 10.0 mg/kg/injection, schedule: Q01DX001 (ip), vehicle: saline with Tween-80
  survivor count: 2 of 2
dose: 100.0 mg/kg/injection, schedule: Q01DX001 (ip), vehicle: saline with Tween-80
  survivor count: 2 of 2

## COC1=CC=C2[C@@H]3Cc4ccc(OC)c5c4[C@]2(CCN3CCCl)C1O5 (some centres undefined)
[1]
  survivor count: 2 of 2
[2]
  survivor count: 2 of 2
[3]
  survivor count: 2 of 2
